Data reported in patent publication US10344330B2, “Glatiramer acetate response biomarker mRNA potency assay” (Mylan Inc., priority 2013, dated 2019).

Experiments:
Type in all cases: cell-based
[1] = tested on: Gapdh mRNA in CD-1 mouse spleen cells; assay: Reference gene Gapdh mRNA (CT) in ConA-stimulated CD-1 mouse spleen cells (Example VI); settings: CD-1 spleen cells, ConA 0.01-3.0 μg/mL, 6 hr
[2] = tested on: Ppia mRNA in CD-1 mouse spleen cells; assay: Reference gene Ppia mRNA (CT) in ConA-stimulated CD-1 mouse spleen cells (Example VI); settings: CD-1 spleen cells, ConA 0.01-3.0 μg/mL, 6 hr
[3] = tested on: B2m mRNA in CD-1 mouse spleen cells; assay: Reference gene B2m mRNA (CT) in ConA-stimulated CD-1 mouse spleen cells (Example VI); settings: CD-1 spleen cells, ConA 0.01-3.0 μg/mL, 6 hr
[4] = tested on: Cyc1 mRNA in CD-1 mouse spleen cells; assay: Reference gene Cyc1 mRNA (CT) in ConA-stimulated CD-1 mouse spleen cells (Example VI); settings: 6 hr
[5] = tested on: Rp113a mRNA in CD-1 mouse spleen cells; assay: Reference gene Rp113a mRNA (CT) in ConA-stimulated CD-1 mouse spleen cells (Example VI); settings: CD-1 spleen cells, ConA 0.01-3.0 μg/mL, 6 hr
[6] = tested on: β-Actin (ActB) mRNA in CD-1 mouse spleen cells; assay: Reference gene β-Actin mRNA (CT) in ConA-stimulated CD-1 mouse spleen cells (Example VI); settings: 6 hr
[7] = tested on: Atp5b mRNA in CD-1 mouse spleen cells; assay: Reference gene Atp5b mRNA (CT) in ConA-stimulated CD-1 mouse spleen cells (Example VI); settings: CD-1 spleen cells, ConA 0.01-3.0 μg/mL, 6 hr
[8] = tested on: Hprt mRNA in CD-1 mouse spleen cells; assay: Reference gene Hprt mRNA (CT) in ConA-stimulated CD-1 mouse spleen cells (Example VI); settings: 6 hr
[9] = CD-1 spleen cells responding to ConA stimulation
[10] = CD-1 spleen cells, ConA 0.01-3.0 μg/mL

Concanavalin A [ConA, reference compound]
Gapdh Maximum (CT) [1]: 28.9 CT
Gapdh Mean (CT) [1]: 26.8 CT
Gapdh Minimum (CT) [1]: 25.3 CT
Ppia Maximum (CT) [2]: 30.3 CT
Ppia Mean (CT) [2]: 26.4 CT
Ppia Minimum (CT) [2]: 23.4 CT
B2m Maximum (CT) [3]: 27.0 CT
B2m Mean (CT) [3]: 25.4 CT
B2m Minimum (CT) [3]: 23.3 CT
Cyc1 mean CT value [4, 9]: > 29
Cyc1 Maximum (CT) [4, 10]: 31.9 CT
Cyc1 Mean (CT) [4, 10]: 29.1 CT
Cyc1 Minimum (CT) [4, 10]: 26.6 CT
Rp113a Maximum (CT) [5]: 28.2 CT
Rp113a Mean (CT) [5]: 26.0 CT
Rp113a Minimum (CT) [5]: 24.1 CT
ActB mean CT value [6, 9]: 22.8
ActB Maximum (CT) [6, 10]: 24.6 CT
ActB Mean (CT) [6, 10]: 22.8 CT
ActB Minimum (CT) [6, 10]: 20.8 CT
Atp5b Maximum (CT) [7]: 29.3 CT
Atp5b Mean (CT) [7]: 26.7 CT
Atp5b Minimum (CT) [7]: 24.0 CT
Hprt mean CT value [8, 9]: > 29
Hprt Maximum (CT) [8, 10]: 34.7 CT
Hprt Mean (CT) [8, 10]: 31.6 CT
Hprt Minimum (CT) [8, 10]: 29.1 CT
